At least one peptide structure holds a part that was inferred or is arguable (an end, a ring closure or a residue). No end group written: not given here.
The substances below were run on PMN migration. Conditions: fragments of N-acetyl LC12-26 tested in animal model of inflammation; result in words.
Format: in vivo
Protocol: Male Swiss Albino mice (20-22 g body weight) were purchased from Interfauna (CFLP strain; Huntingdon, Cambridgeshire, UK) and maintained on a standard chow pellet diet with tap water ad libitum. Animals were used at least one week after arrival.
Air-pouches were formed on the back of the mice by subcutaneous (s.c.) injection of 2.5 ml of air on day 2 and day 5. Three days after the last air-injection (6-day-old air-pouches) 1 mg of zymosan (in 0.5 ml of sterile saline) was injected locally (Perretti et al., 1996). Zymosan was previously boiled for 30 min in phosphate buffered solution (PBS), extensively washed in the same medium and stored at -20°C prior to use.
Four hours after the local injection of zymosan, mice were killed by CO2 exposure and the air-pouches washed with 2 ml of PBS containing ethylenediaminetetracetic acid sodium salt (EDTA; 3 mM) and heparin (25 U/ml). […] The number of PMN was determined, using a Neubauer haematocytometer, after staining (1:10 dilution) with Turk's solution (crystal violet 0.01 % w/v in acetic acid 3% v/v).
Control mice were treated with sterile PBS (100 µl s.c.).

Q: “Ac-AMVSEFLKQAW [LC12-12, Ac-AMVSEFLKQAW]” was tested. Which “activity in the in vivo animal model of inflammation” value (“activity in the in vivo animal model” for short) did it give?
A: active

Q: How did the “activity in the in vivo animal model” value turn out when Ac-AMVSE [LC12-6, Ac-AMVSE] was run?
A: active

Q: Which “activity in the in vivo animal model” value does the source give for Ac-SVEMA [SVEMA, Ac-SVEMA] here?
A: inactive
